Measurements reported in PubChem BioAssay AID1259308 (NCATS, 2017)
Purpose: 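Genes whose loss raises luciferase production in HEK293 cells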 (primary screen). Cells: human HEK293 embryonic kidney cells stably expressing firefly luciferase (HEK-CMV-Luc2-Hygro). Knock-down reagent: single siRNA against human genes, 0.8 pmol siRNA per well. Duration: 72 h. Read-out: 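Luciferase light (ONE-Glo) measured on one replicate plate set and viability (CellTiter-Glo) on the other, scaled to a negative control siRNA, with robust z-scores and luciferase per cell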. Reading the numbers: total luciferase, z-score and total luciferase, % of control: higher = more reporter protein produced; luciferase per cell, z-score: higher = more reporter output per viable cell; viable cells, % of control: higher = more viable cells. Active means: 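An siRNA counts as active if its total luciferase robust z-score exceeds 3; genes with two or more such siRNAs out of three were retested with fresh siRNAs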. Calls: active = raised luciferase; inactive = no rise.
Shown is one part, drawn at random, of about 59,000 deposited reagents. Of all reagents, about 1,510 (2.6%) were called active. 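Calls use total luciferase alone and ignore viability, so some active siRNAs may act by altering cell number.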 Unmarked entries are inactive. The numbers tell different reagents against one gene apart. Reagent sequences are not shown.

no.	gene	reagent	total luciferase, z-score	total luciferase, % of control	luciferase per cell, z-score	viable cells, % of control
1	B4GALNT2	1	-1.35	55.1	-1.23	85
2	B4GALNT2	2	0.657	95	0.28	98.6
3	B4GALNT2	3	-0.429	73.3	-0.643	97.1
4	SLC66A3	1	1.26	107	1.37	83.3
5	SLC66A3	2	-0.0181	81.5	-0.115	93.9
6	SLC66A3	3	-0.0166	81.6	0.392	82.2
7	MAP1LC3B2	1	-0.426	73.4	0.251	76.8
8	MAP1LC3B2	2	3.34 (active)	148	3.11	73.1
9	MAP1LC3B2	3	0.63	94.4	0.628	89.4
10	EEF1AKMT2	1	0.765	97.1	1.43	74.4
11	EEF1AKMT2	2	1.38	109	0.986	94.2
12	EEF1AKMT2	3	0.294	87.7	-0.558	114
13	RPL21P7	1	-2.68	28.5	-2.1	55.4
14	RPL21P7	2	-0.724	67.5	-0.912	95.9
15	RPL21P7	3	0.327	88.4	1.04	75.1
16	TPT1	1	2.92	140	2.78	75.3
17	TPT1	2	-1.22	57.7	-0.865	81
18	TPT1	3	-1.09	60.2	-2.18	119
19	FAM201B	1	1.65	115	1.07	96.6
20	FAM201B	2	0.0272	82.4	-0.193	96.9
21	FAM201B	3	-1.05	61.1	-1.61	104
22	PIK3R2	1	-0.164	78.6	-0.032	88.6
23	PIK3R2	2	-0.612	69.7	-0.445	87.6
24	PIK3R2	3	-0.313	75.7	-0.958	109
25	NEU1	1	-1.15	58.9	-0.941	84.4
26	NEU1	2	0.749	96.8	-0.162	113
27	NEU1	3	-0.0456	81	0.734	74.6
28	SLCO4C1	1	-0.407	73.8	0.129	79.7
29	SLCO4C1	2	1.2	106	1.03	90.1
30	SLCO4C1	3	0.26	87.1	0.151	93.5
31	HNRNPA0	1	-0.251	76.9	-0.621	101
32	HNRNPA0	2	-1.1	60	-1.2	92
33	HNRNPA0	3	0.374	89.3	-0.329	109
34	H4C12	1	4.89 (active)	179	3.6	77.6
35	H4C12	2	1.12	104	1.98	69.1
36	H4C12	3	0.0896	83.7	0.655	78.7
37	SHANK2	1	0.269	87.2	0.185	92.9
38	SHANK2	2	-0.0339	81.2	-0.355	99.7
39	SHANK2	3	-0.723	67.5	-0.757	92.1
40	CAD	1	2.25	127	1.11	106
41	CAD	2	1.23	106	0.476	105
42	CAD	3	0.972	101	0.135	109
43	MYL3	1	-0.647	69	0.0546	76
44	MYL3	2	-1.33	55.4	-0.827	76.9
45	MYL3	3	-0.328	75.4	0.0391	83.3
46	PADI6	1	0.486	91.6	0.324	93.9
47	PADI6	2	-0.0648	80.6	0.0681	88.5
48	PADI6	3	2.5	132	2.07	85.3
49	PIP4P1	1	-1.45	53.1	-1.32	83.9
50	PIP4P1	2	-0.593	70.1	-0.211	82.8
51	PIP4P1	3	1.57	113	1.79	79
52	PLAGL1	1	1.01	102	1.26	81.8
53	PLAGL1	2	3.12 (active)	144	2.69	79.2
54	PLAGL1	3	0.0336	82.6	-0.233	98.1
55	CMPK2	1	-0.451	72.9	-0.66	96.9
56	CMPK2	2	2.22	126	2.55	72
57	CMPK2	3	0.219	86.2	0.408	86.6

An excerpt from above, limited to “total luciferase, % of control”.
EEF1AKMT2 #2: 109
EEF1AKMT2 #3: 87.7
RPL21P7 #1: 28.5
RPL21P7 #2: 67.5
